According to publication PMC11188183:
No constants are given. Whether binding was seen depends on the method and setting. Binding seen in cells or lysates may run through a third protein. A yes stands for co-enrichment or nearness to the bait. Other partners may have been found.

Protein sequences, listed by entry. Tags and fused reporters are not part of them.
UniProt P31943: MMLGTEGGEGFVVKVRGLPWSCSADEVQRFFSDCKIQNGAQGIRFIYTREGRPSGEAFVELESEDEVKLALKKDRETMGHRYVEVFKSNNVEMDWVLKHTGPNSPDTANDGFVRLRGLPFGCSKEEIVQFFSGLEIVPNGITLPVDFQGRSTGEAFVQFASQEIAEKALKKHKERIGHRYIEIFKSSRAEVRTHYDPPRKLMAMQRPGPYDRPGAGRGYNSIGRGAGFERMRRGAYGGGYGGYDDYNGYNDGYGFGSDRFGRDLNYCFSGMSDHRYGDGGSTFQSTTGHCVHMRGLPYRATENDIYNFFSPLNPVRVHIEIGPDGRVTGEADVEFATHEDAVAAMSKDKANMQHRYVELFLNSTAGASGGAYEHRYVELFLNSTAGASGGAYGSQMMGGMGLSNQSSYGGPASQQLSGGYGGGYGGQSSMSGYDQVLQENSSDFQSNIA
UniProt P19012: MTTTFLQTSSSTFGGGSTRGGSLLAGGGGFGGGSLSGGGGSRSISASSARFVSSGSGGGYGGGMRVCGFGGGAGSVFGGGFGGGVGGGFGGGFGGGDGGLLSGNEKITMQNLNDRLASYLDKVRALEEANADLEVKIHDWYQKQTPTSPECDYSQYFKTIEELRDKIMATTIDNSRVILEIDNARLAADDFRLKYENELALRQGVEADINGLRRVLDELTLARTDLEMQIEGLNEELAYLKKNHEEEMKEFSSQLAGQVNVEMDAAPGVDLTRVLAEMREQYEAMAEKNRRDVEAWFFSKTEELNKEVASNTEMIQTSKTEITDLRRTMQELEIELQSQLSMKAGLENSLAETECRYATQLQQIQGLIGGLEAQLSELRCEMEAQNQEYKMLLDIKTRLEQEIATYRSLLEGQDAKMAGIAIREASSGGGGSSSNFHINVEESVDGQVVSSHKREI
UniProt Q6S8J3: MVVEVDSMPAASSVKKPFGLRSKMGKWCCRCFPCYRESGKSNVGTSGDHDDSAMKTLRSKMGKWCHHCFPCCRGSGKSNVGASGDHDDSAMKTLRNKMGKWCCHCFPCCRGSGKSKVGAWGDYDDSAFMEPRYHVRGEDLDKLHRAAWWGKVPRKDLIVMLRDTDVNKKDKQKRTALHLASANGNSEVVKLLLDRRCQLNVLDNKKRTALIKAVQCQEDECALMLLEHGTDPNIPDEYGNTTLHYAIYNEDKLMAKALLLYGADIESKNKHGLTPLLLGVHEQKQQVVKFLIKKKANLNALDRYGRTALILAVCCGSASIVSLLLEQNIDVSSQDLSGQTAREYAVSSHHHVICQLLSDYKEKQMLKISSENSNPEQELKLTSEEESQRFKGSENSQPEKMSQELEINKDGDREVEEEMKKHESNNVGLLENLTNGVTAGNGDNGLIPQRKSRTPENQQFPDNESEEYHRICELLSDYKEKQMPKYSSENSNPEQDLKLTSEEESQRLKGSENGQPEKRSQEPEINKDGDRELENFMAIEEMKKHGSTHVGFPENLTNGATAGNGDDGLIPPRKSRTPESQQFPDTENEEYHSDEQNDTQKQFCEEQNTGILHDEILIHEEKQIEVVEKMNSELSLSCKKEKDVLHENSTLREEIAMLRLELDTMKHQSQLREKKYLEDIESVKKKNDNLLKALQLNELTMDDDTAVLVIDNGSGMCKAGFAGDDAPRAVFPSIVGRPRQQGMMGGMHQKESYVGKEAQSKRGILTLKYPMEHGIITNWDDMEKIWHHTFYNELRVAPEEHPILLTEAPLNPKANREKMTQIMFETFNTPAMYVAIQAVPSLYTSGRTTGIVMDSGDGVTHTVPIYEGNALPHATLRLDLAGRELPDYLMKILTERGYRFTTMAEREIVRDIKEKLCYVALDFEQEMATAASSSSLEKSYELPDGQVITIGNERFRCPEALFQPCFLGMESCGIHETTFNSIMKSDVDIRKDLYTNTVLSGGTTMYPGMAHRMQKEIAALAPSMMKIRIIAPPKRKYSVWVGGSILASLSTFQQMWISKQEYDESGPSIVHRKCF
UniProt P68366: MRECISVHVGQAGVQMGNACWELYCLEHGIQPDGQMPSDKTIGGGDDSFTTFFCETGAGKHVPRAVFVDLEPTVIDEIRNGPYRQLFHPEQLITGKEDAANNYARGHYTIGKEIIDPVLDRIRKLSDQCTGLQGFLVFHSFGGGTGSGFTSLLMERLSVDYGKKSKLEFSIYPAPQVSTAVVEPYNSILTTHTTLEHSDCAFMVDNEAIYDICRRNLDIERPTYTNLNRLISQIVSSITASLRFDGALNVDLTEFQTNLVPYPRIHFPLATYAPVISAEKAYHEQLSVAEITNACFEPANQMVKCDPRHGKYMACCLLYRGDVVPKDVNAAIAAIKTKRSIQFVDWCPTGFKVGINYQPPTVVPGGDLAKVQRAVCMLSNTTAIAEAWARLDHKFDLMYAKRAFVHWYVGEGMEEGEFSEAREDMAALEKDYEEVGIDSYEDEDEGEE
UniProt P0DME0: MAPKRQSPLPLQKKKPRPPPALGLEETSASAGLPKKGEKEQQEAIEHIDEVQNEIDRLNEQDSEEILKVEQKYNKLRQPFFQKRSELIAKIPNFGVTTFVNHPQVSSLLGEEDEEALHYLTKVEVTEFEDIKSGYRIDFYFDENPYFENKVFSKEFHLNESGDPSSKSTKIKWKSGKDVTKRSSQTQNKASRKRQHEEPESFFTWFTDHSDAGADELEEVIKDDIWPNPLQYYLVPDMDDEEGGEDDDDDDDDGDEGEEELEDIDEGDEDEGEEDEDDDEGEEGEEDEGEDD
UniProt P08729: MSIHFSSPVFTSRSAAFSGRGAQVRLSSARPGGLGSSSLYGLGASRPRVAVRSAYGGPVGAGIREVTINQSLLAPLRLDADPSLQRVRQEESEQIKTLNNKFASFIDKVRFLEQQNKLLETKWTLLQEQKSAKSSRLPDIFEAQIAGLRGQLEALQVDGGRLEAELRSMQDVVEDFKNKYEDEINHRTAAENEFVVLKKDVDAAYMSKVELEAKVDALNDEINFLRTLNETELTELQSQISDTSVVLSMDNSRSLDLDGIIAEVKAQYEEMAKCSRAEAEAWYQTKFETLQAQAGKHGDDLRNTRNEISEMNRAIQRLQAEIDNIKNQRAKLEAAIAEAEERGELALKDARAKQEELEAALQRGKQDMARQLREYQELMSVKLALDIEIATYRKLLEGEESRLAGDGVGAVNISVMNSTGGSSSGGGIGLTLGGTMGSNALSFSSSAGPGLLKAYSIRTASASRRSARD
UniProt P0DMV8: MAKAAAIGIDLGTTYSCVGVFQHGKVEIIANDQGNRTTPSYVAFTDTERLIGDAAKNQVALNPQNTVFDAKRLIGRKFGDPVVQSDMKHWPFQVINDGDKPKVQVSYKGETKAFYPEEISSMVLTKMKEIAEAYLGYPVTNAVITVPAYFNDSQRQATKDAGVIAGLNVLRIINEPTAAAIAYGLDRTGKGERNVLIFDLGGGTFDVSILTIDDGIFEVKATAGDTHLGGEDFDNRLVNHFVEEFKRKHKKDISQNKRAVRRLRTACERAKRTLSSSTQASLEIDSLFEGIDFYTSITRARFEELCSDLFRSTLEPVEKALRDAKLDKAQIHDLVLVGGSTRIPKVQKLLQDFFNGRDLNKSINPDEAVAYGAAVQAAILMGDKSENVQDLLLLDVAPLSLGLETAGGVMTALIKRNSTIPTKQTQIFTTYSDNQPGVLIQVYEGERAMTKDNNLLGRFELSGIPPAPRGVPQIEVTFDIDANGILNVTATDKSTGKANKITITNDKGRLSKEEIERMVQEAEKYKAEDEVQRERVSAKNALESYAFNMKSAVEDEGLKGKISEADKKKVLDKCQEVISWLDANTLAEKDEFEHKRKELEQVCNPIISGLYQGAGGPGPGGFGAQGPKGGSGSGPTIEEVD
UniProt Q9BUF5: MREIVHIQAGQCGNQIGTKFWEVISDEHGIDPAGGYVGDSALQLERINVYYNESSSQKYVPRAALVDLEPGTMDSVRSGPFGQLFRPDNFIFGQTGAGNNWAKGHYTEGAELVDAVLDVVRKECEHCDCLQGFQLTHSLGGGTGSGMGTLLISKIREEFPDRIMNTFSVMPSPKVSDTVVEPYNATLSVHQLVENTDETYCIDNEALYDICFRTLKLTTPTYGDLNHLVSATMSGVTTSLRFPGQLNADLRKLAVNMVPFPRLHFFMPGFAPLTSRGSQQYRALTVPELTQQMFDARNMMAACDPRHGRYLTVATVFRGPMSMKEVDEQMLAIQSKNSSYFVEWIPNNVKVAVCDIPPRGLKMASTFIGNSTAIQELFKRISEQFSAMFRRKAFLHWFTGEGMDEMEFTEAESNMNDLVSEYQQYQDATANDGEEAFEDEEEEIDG
UniProt Q6ZMS4: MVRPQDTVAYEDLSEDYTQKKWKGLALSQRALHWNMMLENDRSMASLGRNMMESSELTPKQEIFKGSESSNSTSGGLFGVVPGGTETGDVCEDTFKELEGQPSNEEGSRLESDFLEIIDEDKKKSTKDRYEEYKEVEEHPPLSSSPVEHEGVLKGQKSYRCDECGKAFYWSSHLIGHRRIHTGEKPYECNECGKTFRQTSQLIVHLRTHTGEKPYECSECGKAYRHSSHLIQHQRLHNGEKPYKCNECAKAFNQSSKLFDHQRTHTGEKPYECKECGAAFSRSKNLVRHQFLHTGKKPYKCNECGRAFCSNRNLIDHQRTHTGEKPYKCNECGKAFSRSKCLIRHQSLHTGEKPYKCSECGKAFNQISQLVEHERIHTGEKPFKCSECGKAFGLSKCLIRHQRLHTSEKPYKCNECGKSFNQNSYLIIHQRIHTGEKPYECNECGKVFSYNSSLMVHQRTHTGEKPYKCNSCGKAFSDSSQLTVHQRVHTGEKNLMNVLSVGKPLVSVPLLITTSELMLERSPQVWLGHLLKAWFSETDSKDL
UniProt P04350: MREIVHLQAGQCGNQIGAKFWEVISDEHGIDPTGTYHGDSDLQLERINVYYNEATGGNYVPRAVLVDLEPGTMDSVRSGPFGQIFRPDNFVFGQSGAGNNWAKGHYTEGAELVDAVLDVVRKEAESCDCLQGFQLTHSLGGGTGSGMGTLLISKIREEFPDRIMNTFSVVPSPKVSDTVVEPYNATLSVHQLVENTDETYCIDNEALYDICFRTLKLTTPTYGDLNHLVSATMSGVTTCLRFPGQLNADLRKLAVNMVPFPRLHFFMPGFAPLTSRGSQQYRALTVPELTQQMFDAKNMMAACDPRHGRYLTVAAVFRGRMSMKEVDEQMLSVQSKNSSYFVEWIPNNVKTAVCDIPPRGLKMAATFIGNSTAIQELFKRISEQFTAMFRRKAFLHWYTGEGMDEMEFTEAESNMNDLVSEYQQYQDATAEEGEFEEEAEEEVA
UniProt P68371: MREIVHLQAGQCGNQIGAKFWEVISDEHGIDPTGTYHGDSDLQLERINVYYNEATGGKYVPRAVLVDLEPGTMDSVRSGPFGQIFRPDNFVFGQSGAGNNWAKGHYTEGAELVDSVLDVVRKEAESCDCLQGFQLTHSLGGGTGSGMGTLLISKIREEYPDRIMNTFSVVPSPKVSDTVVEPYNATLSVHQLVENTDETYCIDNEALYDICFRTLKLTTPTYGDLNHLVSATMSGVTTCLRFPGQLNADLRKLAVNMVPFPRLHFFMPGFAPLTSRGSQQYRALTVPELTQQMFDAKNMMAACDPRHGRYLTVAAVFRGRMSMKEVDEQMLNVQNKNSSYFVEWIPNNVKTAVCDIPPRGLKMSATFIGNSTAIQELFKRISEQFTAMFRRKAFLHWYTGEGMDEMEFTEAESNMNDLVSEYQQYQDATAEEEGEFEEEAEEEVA
UniProt P48741: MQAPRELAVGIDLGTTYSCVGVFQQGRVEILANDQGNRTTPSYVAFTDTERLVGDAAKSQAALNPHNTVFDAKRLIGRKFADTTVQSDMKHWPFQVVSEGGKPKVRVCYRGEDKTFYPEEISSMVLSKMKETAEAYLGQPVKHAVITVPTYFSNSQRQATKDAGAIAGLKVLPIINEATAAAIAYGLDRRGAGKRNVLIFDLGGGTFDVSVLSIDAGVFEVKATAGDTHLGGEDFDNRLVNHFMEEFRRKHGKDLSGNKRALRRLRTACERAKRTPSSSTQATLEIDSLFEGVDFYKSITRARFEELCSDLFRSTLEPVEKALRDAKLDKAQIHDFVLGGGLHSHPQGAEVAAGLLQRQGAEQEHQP
UniProt Q13509: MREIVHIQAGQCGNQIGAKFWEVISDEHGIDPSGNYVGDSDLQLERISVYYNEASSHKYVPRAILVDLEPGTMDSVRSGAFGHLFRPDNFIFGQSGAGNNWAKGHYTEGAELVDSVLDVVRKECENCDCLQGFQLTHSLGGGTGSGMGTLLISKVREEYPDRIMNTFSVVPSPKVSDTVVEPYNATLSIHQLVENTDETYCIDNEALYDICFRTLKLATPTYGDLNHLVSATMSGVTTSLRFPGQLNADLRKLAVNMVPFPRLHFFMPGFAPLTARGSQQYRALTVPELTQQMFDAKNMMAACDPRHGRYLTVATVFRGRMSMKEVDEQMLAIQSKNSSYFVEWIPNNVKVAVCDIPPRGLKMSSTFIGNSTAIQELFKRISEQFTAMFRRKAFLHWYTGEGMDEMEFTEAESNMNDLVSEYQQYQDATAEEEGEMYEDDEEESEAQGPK

T1: kinesin family member C1 (KIFC1) (human) (UniProt Q9BW19)
T1 sequence: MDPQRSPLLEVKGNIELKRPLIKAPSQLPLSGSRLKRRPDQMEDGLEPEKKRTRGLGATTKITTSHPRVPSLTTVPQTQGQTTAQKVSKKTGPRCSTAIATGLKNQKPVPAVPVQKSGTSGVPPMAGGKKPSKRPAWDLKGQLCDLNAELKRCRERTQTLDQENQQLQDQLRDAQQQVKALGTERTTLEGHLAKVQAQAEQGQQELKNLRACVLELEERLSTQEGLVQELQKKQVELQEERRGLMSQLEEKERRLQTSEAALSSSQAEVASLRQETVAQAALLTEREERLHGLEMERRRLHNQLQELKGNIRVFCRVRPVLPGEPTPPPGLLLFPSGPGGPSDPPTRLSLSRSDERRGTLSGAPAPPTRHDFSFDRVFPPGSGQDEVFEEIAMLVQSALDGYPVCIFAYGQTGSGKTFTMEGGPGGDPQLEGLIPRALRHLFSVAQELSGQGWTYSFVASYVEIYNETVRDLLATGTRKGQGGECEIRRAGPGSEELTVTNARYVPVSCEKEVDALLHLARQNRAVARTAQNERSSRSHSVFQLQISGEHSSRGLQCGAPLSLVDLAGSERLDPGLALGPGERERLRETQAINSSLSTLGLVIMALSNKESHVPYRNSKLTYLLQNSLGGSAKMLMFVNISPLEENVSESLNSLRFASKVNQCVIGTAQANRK

B1: ANX10_HUMAN (protein, UniProt Q9UJ72 1-324)
chain: MFCGDYVQGTIFPAPNFNPIMDAQMLGGALQGFDCDKDMLINILTQRCNAQRMMIAEAYQSMYGRDLIGDMREQLSDHFKDVMAGLMYPPPLYDAHELWHAMKGVGTDENCLIEILASRTNGEIFQMREAYCLQYSNNLQEDIYSETSGHFRDTLMNLVQGTREEGYTDPAMAAQDAMVLWEACQQKTGEHKTMLQMILCNKSYQQLRLVFQEFQNISGQDMVDAINECYDGYFQELLVAIVLCVRDKPAYFAYRLYSAIHDFGFHNKTVIRILIARSEIDLLTIRKRYKERYGKSLFHDIRNFASGHYKKALLAICAGDAEDY
B2: LAD1_HUMAN (protein, UniProt O00515 1-517)
chain: MAVSRKDWSALSSLARQRTLEDEEEQERERRRRHRNLSSTTDDEAPRLSQNGDRQASASERLPSVEEAEVPKPLPPASKDEDEDIQSILRTRQERRQRRQVVEAAQAPIQERLEAEEGRNSLSPVQATQKPLVSKKELEIPPRRRLSREQRGPWALEEESLVGREPEERKKGVPEKSPVLEKSSMPKKTAPEKSLVSDKTSISEKVLASEKTSLSEKIAVSEKRNSSEKKSVLEKTSVSEKSLAPGMALGSGRRLVSEKASIFEKALASEKSPTADAKPAPKRATASEQPLAQEPPASGGSPATTKEQRGRALPGKNLPSLAKQGASDPPTVASRLPPVTLQVKIPSKEEEADMSSPTQRTYSSSLKRSSPRTISFRMKPKKENSETTLTRSASMKLPDNTVKLGEKLERYHTAIRRSESVKSRGLPCTELFVAPVGVASKRHLFEKELAGQSRAEPASSRKENLRLSGVVTSRLNLWISRTQESGDQDPQEAQKASSATERTQWGQKSDSSLDAEV
B3: K1C13_HUMAN (protein, UniProt P13646 1-458)
chain: MSLRLQSSSASYGGGFGGGSCQLGGGRGVSTCSTRFVSGGSAGGYGGGVSCGFGGGAGSGFGGGYGGGLGGGYGGGLGGGFGGGFAGGFVDFGACDGGLLTGNEKITMQNLNDRLASYLEKVRALEEANADLEVKIRDWHLKQSPASPERDYSPYYKTIEELRDKILTATIENNRVILEIDNARLAADDFRLKYENELALRQSVEADINGLRRVLDELTLSKTDLEMQIESLNEELAYMKKNHEEEMKEFSNQVVGQVNVEMDATPGIDLTRVLAEMREQYEAMAERNRRDAEEWFHTKSAELNKEVSTNTAMIQTSKTEITELRRTLQGLEIELQSQLSMKAGLENTVAETECRYALQLQQIQGLISSIEAQLSELRSEMECQNQEYKMLLDIKTRLEQEIATYRSLLEGQDAKMIGFPSSAGSVSPRSTSVTTTSSASVTTTSNASGRRTSDVRRP
B4: K1C18_HUMAN (protein, UniProt P05783 1-430)
chain: MSFTTRSTFSTNYRSLGSVQAPSYGARPVSSAASVYAGAGGSGSRISVSRSTSFRGGMGSGGLATGIAGGLAGMGGIQNEKETMQSLNDRLASYLDRVRSLETENRRLESKIREHLEKKGPQVRDWSHYFKIIEDLRAQIFANTVDNARIVLQIDNARLAADDFRVKYETELAMRQSVENDIHGLRKVIDDTNITRLQLETEIEALKEELLFMKKNHEEEVKGLQAQIASSGLTVEVDAPKSQDLAKIMADIRAQYDELARKNREELDKYWSQQIEESTTVVTTQSAEVGAAETTLTELRRTVQSLEIDLDSMRNLKASLENSLREVEARYALQMEQLNGILLHLESELAQTRAEGQRQAQEYEALLNIKVKLEAEIATYRRLLEDGEDFNLGDALDSSNSMQTIQKTTTRRIVDGKVVSETNDTKVLRH
B5: CCNK_HUMAN (protein, UniProt O75909 1-580)
chain: MKENKENSSPSVTSANLDHTKPCWYWDKKDLAHTPSQLEGLDPATEARYRREGARFIFDVGTRLGLHYDTLATGIIYFHRFYMFHSFKQFPRYVTGACCLFLAGKVEETPKKCKDIIKTARSLLNDVQFGQFGDDPKEEVMVLERILLQTIKFDLQVEHPYQFLLKYAKQLKGDKNKIQKLVQMAWTFVNDSLCTTLSLQWEPEIIAVAVMYLAGRLCKFEIQEWTSKPMYRRWWEQFVQDVPVDVLEDICHQILDLYSQGKQQMPHHTPHQLQQPPSLQPTPQVPQVQQSQPSQSSEPSQPQQKDPQQPAQQQQPAQQPKKPSPQPSSPRQVKRAVVVSPKEENKAAEPPPPKIPKIETTHPPLPPAHPPPDRKPPLAAALGEAEPPGPVDATDLPKVQIPPPAHPAPVHQPPPLPHRPPPPPPSSYMTGMSTTSSYMSGEGYQSLQSMMKTEGPSYGALPPAYGPPAHLPYHPHVYPPNPPPPPVPPPPASFPPPAIPPPTPGYPPPPPTYNPNFPPPPPRLPPTHAVPPHPPPGLGLPPASYPPPAVPPGGQPPVPPPIPPPGMPPVGGLGRAAWMR

biological target: T1, kinesin family member C1 (KIFC1) (human); test: affinity purification with mass spectrometry; anti-KIFC1 antibody (Abcam ab172620) crosslinked to magnetic beads; nuclear lysate of HCC1806 (AA) cells; LC-MS/MS of the eluate

binding, binds:
HNRH1_HUMAN (from UniProt P31943 1-449)
K1C15_HUMAN (from UniProt P19012 1-456)
POTEE_HUMAN (from UniProt Q6S8J3 1-1075)
TBA4A_HUMAN (from UniProt P68366 1-448)
LIMA1_HUMAN (from UniProt Q9UHB6 1-759)
POTEJ_HUMAN (from UniProt P0CG39 1-1038)
TBA8_HUMAN (from UniProt Q9NY65 1-449)
SETLP_HUMAN (from UniProt P0DME0 1-292)
K2C75_HUMAN (from UniProt O95678 1-551)
LMNA_HUMAN (from UniProt P02545 1-646)
K2C7_HUMAN (from UniProt P08729 1-469)
POTEF_HUMAN (from UniProt A5A3E0 1-1075)
K1C16_HUMAN (from UniProt P08779 1-473)
HS71A_HUMAN (from UniProt P0DMV8 1-641)
POTEI_HUMAN (from UniProt P0CG38 1-1075)
B1
B2
B3

biological target: T1, kinesin family member C1 (KIFC1) (human); test: affinity purification with mass spectrometry; anti-KIFC1 antibody (Abcam ab172620) crosslinked to magnetic beads; nuclear lysate of MDA-MB-468 (AA) cells; LC-MS/MS of the eluate

binding, binds:
ALBU_HUMAN (from UniProt P02768 25-609)
POTEE_HUMAN (from UniProt Q6S8J3 1-1075)
LIMA1_HUMAN (from UniProt Q9UHB6 1-759)
TBB6_HUMAN (from UniProt Q9BUF5 1-446)
ZN852_HUMAN (from UniProt Q6ZMS4 1-543)
TBB5_HUMAN (from UniProt P07437 1-444)
ACTBM_HUMAN (from UniProt Q9BYX7 1-375)
ACTBL_HUMAN (from UniProt Q562R1 1-376)
TBB4A_HUMAN (from UniProt P04350 1-444)
TBB2B_HUMAN (from UniProt Q9BVA1 1-445)
TBB4B_HUMAN (from UniProt P68371 1-445)
HSP77_HUMAN (from UniProt P48741 1-367)
DDX21_HUMAN (from UniProt Q9NR30 1-783)
TBB2A_HUMAN (from UniProt Q13885 1-445)
TBB3_HUMAN (from UniProt Q13509 1-450)
GRP75_HUMAN (from UniProt P38646 47-679)
MYH11_HUMAN (from UniProt P35749 1-1972)
SPTB2_HUMAN (from UniProt Q01082 1-2364)
B4
B5
